PubChem BioAssay AID504834 (National Center for Advancing Translational Sciences (NCATS), 2011)
Out of some 320,000 compounds screened, about 22,000 (6.9%) were called active. The shares of active, inactive and inconclusive entries below differ from those in the screen. Calls follow the shape of the dose curve; as a rule, active = well fitted inhibition curve with a large enough effect; inconclusive = small, poorly fitted or top-dose-only effect, or another doubt; inactive = no such curve, though single readings can be large or run the other way. Potencies of inconclusive entries are doubtful fits and often do not repeat.

experiment: Primary qHTS for delayed death inhibitors of the malarial parasite plastid, 96 hour incubation; conditions: P. falciparum luciferase reporter growth; series mostly up to 28.7 µM; activity change, negative = inhibition: at the top concentration
In short: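 Two-generation exposure (96 h) targets delayed-death phenotype. Reporter parasites carrying integrated firefly luciferase, in red cells at 2% hematocrit and 0.05% parasitemia final, kept at 37 C, 5% CO2; luminescence loss indicates inhibition.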
% is scaled to controls: 0 for no effect and ±100 for the full control effect; potency is read from the fitted curve at half-maximal effect.

| SMILES | Potency | activity change, negative = inhibition |
| --- | --- | --- |
| CCCCNC(=O)c1ccc(NC(=O)CC2SC(N3CCCC3)=NC2=O)cc1 (stereo not drawn) | inconclusive: 18.5 µM [inhibitor, partial curve, poor fit] | – |
| Cc1cccc(N=C2NC(=O)/C(=C/c3cccnc3)S2)c1C | inconclusive: 3.29 µM [inhibitor, partial curve, poor fit] | – |
| CCc1ccccc1NC(=O)Nc1c(C)n(C)n(-c2ccccc2)c1=O | inconclusive: 18.5 µM [inhibitor, single point] | – |
| CCN(Cc1ccccc1)C(=O)c1c[nH]c2ccc(S(=O)(=O)N(C)CCC#N)cc2c1=O | – | inactive: 7.08% |
| C/C(=N\NC(=S)NCCc1ccccc1)c1ccc(C#N)cc1 | inconclusive: 10.4 µM [inhibitor, single point] | – |
| O=C(COc1ccc([N+](=O)[O-])cc1)N1CCc2ccccc2C1 | inconclusive: 7.38 µM [inhibitor, partial curve, poor fit] | – |
| COc1cccc(OCc2cc(C(=O)N(C)Cc3nccn3C)no2)c1 | – | inactive: 15% |
| Nc1ccn(Cc2cccc(F)c2)n1 | inconclusive: 14.7 µM [inhibitor, partial curve, poor fit] | – |
| CCn1c(CCn2c3ccccc3c3ccccc32)n[nH]c1=S | inconclusive: 18.5 µM [inhibitor, single point] | – |
| COc1cc(OC)cc(C(C)=O)c1 | – | inactive: 112% |
| Oc1ccccc1CNc1ccc2c(c1)OCCO2 | – | inactive: 70.4% |
| Cc1ccc(C(=O)NCCCNC(=O)Cc2ccccc2)cn1 | inconclusive: 3.29 µM [inhibitor, partial curve, poor fit] | – |
| Cc1nnc(SC(C)C(=O)NCC2CCCO2)s1 (stereo not drawn) | – | inactive: 2.07% |
| Cc1nnc(NC(=O)c2cccc(Br)c2)s1 | – | inactive: 16.6% |
| O=C(N/C(=C/c1cccc([N+](=O)[O-])c1)C(=O)N1CCCCC1)c1ccco1 | – | inactive: -17.8% |
| CC(C)(C)c1cc(C(=O)NN)n(Cc2ccc(F)cc2)n1 | inconclusive: 18.5 µM [inhibitor, single point] | – |
| Cc1cc(C)cc(NC(=O)Nc2cc(-c3ccccc3)nn2C)c1 | – | inactive: 0.938% |
| N#CCCN1CCN(Cc2cc(-c3ccccc3)ccc2O)CC1 | inconclusive: 9.28 µM [inhibitor, partial curve] | – |
| CN(C)CCNC(=O)CNC(=S)N(Cc1ccccc1)Cc1ccccc1F | inconclusive: 2.94 µM [inhibitor, partial curve, poor fit] | – |
| O=C(CCOc1ccccc1)Nc1ccc(Cl)c(S(=O)(=O)N2CCOCC2)c1 | inconclusive: 10.4 µM [inhibitor, single point] | – |
| Cc1cc(C)n(CCN(C)C(=O)C2CCC(=O)N(CCN3CCOCC3)C2)n1 (stereo not drawn) | – | inactive: -9.83% |
| CCCCCCN(C(=O)CCCCCN1C(=O)NC(c2ccc(-c3ccccc3)cc2)C(C(=O)OCc2ccccc2)=C1C)C(C(=O)NCCCC)c1ccc(O)cc1 (stereo not drawn) | active: 2.08 µM | – |
| O=C(NCc1ccco1)C1CC(c2ccccc2O)=NO1 (stereo not drawn) | inconclusive: 18.5 µM [inhibitor, single point] | – |

| SMILES | Potency | activity change, negative = inhibition |
| --- | --- | --- |
| Cn1c(=O)c2c([nH]c(=S)n2CCCc2ccccc2)n(C)c1=O | inconclusive: 10.4 µM [inhibitor, partial curve] | – |
| CCCCN(CCCC)CCCNC(=O)Cn1cc2c(n1)-c1c(oc(C(=O)N3CCCC3)c1C)CC2 | inconclusive: 0.0185 µM [inhibitor, full curve, poor fit] | – |
| CCN(CC)CCN1C(=O)C(=O)/C(=C(/O)c2ccc(F)cc2)C1c1cccnc1 (stereo not drawn) | inconclusive: 2.08 µM [inhibitor, partial curve, poor fit] | – |
| COC(=O)c1ccc(N2CCN(S(=O)(=O)c3ccc(Br)cc3)CC2)c([N+](=O)[O-])c1 | inconclusive: 13.1 µM [inhibitor, partial curve, poor fit] | – |
| Cc1ccc(-c2[nH]ncc2CN2CCN(C(=O)c3cccs3)CC2)cc1C | inconclusive: 2.08 µM [inhibitor, partial curve, poor fit] | – |
| O=C(NC1CCCCC1)N1CCN(C(c2ccccc2)c2ccccc2)CC1 | inconclusive: 4.15 µM [inhibitor, partial curve, poor fit] | – |
| N=c1scc(-c2ccccc2)n1/N=C/c1ccco1 | inconclusive: 18.5 µM [inhibitor, single point] | – |
| CCCNC(=O)c1onc(CSc2ccc(F)cc2)c1C(=O)NCC1CC1 | inconclusive: 18.5 µM [inhibitor, single point] | – |
| CC1(C)Cc2c(sc(NC(=O)C(=O)NCC3CCCO3)c2C(=O)O)CO1 (stereo not drawn) | inconclusive: 11.7 µM [inhibitor, partial curve, poor fit] | – |
| Cc1ccc(CNC(=O)C2CC3Cn4c(nc5cc(Cl)c(Cl)cc54)C3N2C)o1 (stereo not drawn) | – | inactive: 0.189% |
| CC(C)c1onc(C(=O)Nc2cccc(O)c2)c1[N+](=O)[O-] | – | inactive: 92.3% |
| CC1(C)Cc2c(cnn2-c2ccc(F)cc2)C(NC(=O)c2ccoc2)C1 (stereo not drawn) | inconclusive: 10.4 µM [inhibitor, partial curve] | – |
| COC(=O)C1C(=O)C2=C(CC1C)NC(=O)CC2c1ccc(F)cc1 (stereo not drawn) | – | inactive: 3.84% |
| NNc1nnnc2c1sc1nc(N3CCOCC3)c3c(c12)CCCC3 | inconclusive: 11.7 µM [inhibitor, single point] | – |
| O=C(N/N=C/C=C/c1ccccc1[N+](=O)[O-])c1cc(-c2cccnc2)nc2ccccc12 | inconclusive: 18.5 µM [inhibitor, single point] | – |
| COCCCNC(=O)/C(C#N)=C/c1c(N2CCN(c3cccc(Cl)c3)CC2)nc2c(C)cccn2c1=O | inconclusive: 4.65 µM [inhibitor, partial curve] | – |
| O=C(c1ccc(S(=O)(=O)N2CCCCCC2)cc1)N1CCCC(C(F)(F)F)C1 (stereo not drawn) | inconclusive: 10.4 µM [inhibitor, single point] | – |
| COc1cc(/C=N/NC(=O)C(Cc2c[nH]c3ccccc23)NC(=O)OCC(C)C)cc([N+](=O)[O-])c1O (stereo not drawn) | active: 11.7 µM | – |
| O=C(O)C1=NN(c2c(F)c(F)cc(F)c2F)C(=O)CC1 | – | inactive: 20.6% |
| CCOc1ccccc1-c1nc(-c2ccc(NC(=O)Cc3ccc(OC)cc3)cc2)no1 | inconclusive: 10.4 µM [inhibitor, partial curve, poor fit] | – |
| O=C(NCCCN1CCCC1=O)c1cccc(S(=O)(=O)Nc2ccc(F)cc2)c1 | active: 13.1 µM | – |
| COc1c(C)cc(C(=O)C2CCCN(C(=O)c3cc(C)n(C)n3)C2)cc1C (stereo not drawn) | – | inactive: 21.9% |
| COc1ccc(C)cc1S(=O)(=O)N1CCN(C(=O)c2ncoc2-c2cccc(C)c2)CC1 | active: 0.928 µM | – |

| SMILES | Potency | activity change, negative = inhibition |
| --- | --- | --- |
| Cc1sc2ncnc(N3CCC(C(=O)Nc4nc(-c5ccc(F)cc5)cs4)CC3)c2c1C | inconclusive: 18.5 µM [inhibitor, single point] | – |
| CC1(C)CC2(CCO1)C(Nc1ccccc1)=NC(=S)N2CC(N)=O (stereo not drawn) | – | inactive: -26.3% |
| C[C@H]1COC2=C1C(=O)C(=O)c1c2ccc2c1CCCC2(C)C | inconclusive: 18.5 µM [inhibitor, single point] | – |
| CCOC(=O)C1=C(CN2CCN(C(=O)OCC)CC2)NC(=O)NC1c1ccc2c(c1)OCO2 (stereo not drawn) | – | inactive: 24.3% |
| O=C1/C(=C/c2ccc(F)cc2)SC(=S)N1CC(=O)N1CCCCC1c1cccnc1 (stereo not drawn) | inconclusive: 13.1 µM [inhibitor, single point] | – |
| CN(CCCN1CCCCC1)C(=O)c1cc(COc2ccc(F)cc2F)on1 | – | inactive: -13.7% |
| Cc1c2cnn(CC(=O)N3CCC4(CC3)OCCO4)c(=O)c2c(C)n1Cc1cccc(Cl)c1 | inconclusive: 0.522 µM [inhibitor, full curve, poor fit] | – |
| O=C(CN1CCN(c2ccccn2)CC1)Nc1ccccc1Br | inconclusive: 5.22 µM [inhibitor, partial curve] | – |
| COc1cc(NCc2ccccc2O)c2ncccc2c1 | inconclusive: 18.5 µM [inhibitor, single point] | – |
| CC1CC(C)CN(S(=O)(=O)c2ccc3c(c2)CCN3C(=O)CCC(=O)O)C1 (stereo not drawn) | inconclusive: 18.5 µM [inhibitor, single point] | – |
| CC1=C(C)C(=O)N(c2ccccn2)C1=O | – | inactive: 12.8% |
| COc1ccc(C(CCN2CCCC(C)C2)c2c(OC)cc(OC)c3c(C)cc(=O)oc23)cc1 (stereo not drawn) | active: 2.62 µM | – |
| Cc1ccc(NC2=CC(=O)CC(c3ccccc3)C2)cc1 (stereo not drawn) | inconclusive: 14.7 µM [inhibitor, partial curve, poor fit] | – |
| CN1CCN(c2nc(-c3ccccc3)ncc2S(=O)(=O)c2ccccc2)CC1 | inconclusive: 0.104 µM [inhibitor, full curve, poor fit] | – |
| N#C/C(=C(/O)COC(=O)Cc1c[nH]c2ccccc12)c1nc2ccccc2[nH]1 | inconclusive: 10.4 µM [inhibitor, single point] | – |
| Cc1ccc(NC(=O)CSc2nnnn2C2CCCC2)cc1S(=O)(=O)N1CCOCC1 | active: 8.28 µM | – |
| Cc1nn(CC(=O)Nc2ccccn2)c(C)c1Br | – | inactive: 27.3% |
| OCCCNc1nc(-c2ccc(Cl)cc2)nnc1-c1ccc(Br)cc1 | inconclusive: 18.5 µM [inhibitor, single point] | – |
| COc1cc(/C=N/NC(=O)CC23CC4CC(CC(C4)C2)C3)cc(Br)c1OCC(=O)N(C)C | inconclusive: 2.62 µM [inhibitor, partial curve] | – |
| Cc1cccc(N=C2SC(C)CN2C(=O)CN2C(=O)NC3(CCCC3)C2=O)c1 (stereo not drawn) | inconclusive: 0.0033 µM [inhibitor, full curve, poor fit] | – |
| CC(C)(C)c1ccc(C(=O)NCCOc2ccccc2F)cc1 | inconclusive: 0.738 µM [inhibitor, partial curve, poor fit] | – |
| O=[N+]([O-])c1ccc(/C=N/n2c(-c3ccccc3)n[nH]c2=S)cc1 | inconclusive: 10.4 µM [inhibitor, single point] | – |

An excerpt from above in order of molar mass, low to high.

| SMILES | Potency | activity change, negative = inhibition |
| --- | --- | --- |
| CC1(C)Cc2c(cnn2-c2ccc(F)cc2)C(NC(=O)c2ccoc2)C1 (stereo not drawn) | inconclusive: 10.4 µM [inhibitor, partial curve] | – |
| Cc1ccc(-c2[nH]ncc2CN2CCN(C(=O)c3cccs3)CC2)cc1C | inconclusive: 2.08 µM [inhibitor, partial curve, poor fit] | – |
| COc1cc(/C=N/NC(=O)C(Cc2c[nH]c3ccccc23)NC(=O)OCC(C)C)cc([N+](=O)[O-])c1O (stereo not drawn) | active: 11.7 µM | – |

Whole records as entered above. Order of values: Potency	activity change, negative = inhibition
`C[C@H]1COC2=C1C(=O)C(=O)c1c2ccc2c1CCCC2(C)C` reads inconclusive: 18.5 µM [inhibitor, single point]	–
`O=C1/C(=C/c2ccc(F)cc2)SC(=S)N1CC(=O)N1CCCCC1c1cccnc1` (stereo not drawn) reads inconclusive: 13.1 µM [inhibitor, single point]	–
